A short description of this data set: general procedure: solution-phase peptide synthesis; CDI; EDC·HCl/HOBt/DIPEA; DCC/HOBt.

Data on six substances can be found in patent US12265082B2 (SYNOVO GMBH, priority 2016, dated 2025).

As to Acrylamido-AAPVA-RBB, the step yield (late stage modification step) is over 95%.
In the case of Acrylamido-AAPVAA-RBB, the step yield (late stage modification step) was over 95%.
For Fmoc-AAAPM-RBB, the step yield (coupling step) is on record as over 85%.
In the case of Fmoc-AAPFA-RBB, for the setting “coupling step”, the step yield is on record as −98%.
In the case of Fmoc-AAPVA-RBB, for the setting “conjugation step”, the conjugation yield entry is on record as “˜23%”. For the same substance, where the note is “coupling step”, the step yield was −70%.
In the case of Fmoc-AAPVAA-RBB, the step yield (coupling step) was −58%.
